# Results from paper PMC9626503.
# Amino acid sequences for entries named in this document (tags omitted).
# UniProt Q9C005: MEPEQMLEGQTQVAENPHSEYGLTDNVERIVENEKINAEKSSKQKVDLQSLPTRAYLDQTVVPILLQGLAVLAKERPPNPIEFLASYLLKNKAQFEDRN
# UniProt Q15291: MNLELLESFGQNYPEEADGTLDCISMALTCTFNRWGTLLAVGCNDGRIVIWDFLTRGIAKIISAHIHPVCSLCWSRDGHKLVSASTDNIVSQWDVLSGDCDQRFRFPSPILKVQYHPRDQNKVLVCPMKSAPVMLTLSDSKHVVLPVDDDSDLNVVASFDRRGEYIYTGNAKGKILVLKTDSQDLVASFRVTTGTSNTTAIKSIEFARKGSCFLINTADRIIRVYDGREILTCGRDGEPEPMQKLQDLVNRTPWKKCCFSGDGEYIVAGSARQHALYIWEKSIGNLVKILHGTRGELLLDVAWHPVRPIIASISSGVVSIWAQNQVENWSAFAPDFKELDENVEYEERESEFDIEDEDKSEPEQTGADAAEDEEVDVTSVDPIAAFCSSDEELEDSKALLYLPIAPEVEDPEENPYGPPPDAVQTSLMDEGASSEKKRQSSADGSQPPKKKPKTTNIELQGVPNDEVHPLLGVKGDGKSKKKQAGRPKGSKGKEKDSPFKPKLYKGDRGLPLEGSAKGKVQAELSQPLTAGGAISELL
# Results are given in words; binding and its absence hold for the method and conditions named. Binding seen in cells or lysates may run through a third protein. These calls come from enrichment with a bait or labelling near it, and not all partners need be listed. Sequences can lack the tags named with a protein.
# Molecular target: T1, FOXQ1 with C-terminal TAP-tag (pcDNA3.1-FOXQ1-(C)-STAP) (human) (UniProt Q9C009)
# T1 sequence: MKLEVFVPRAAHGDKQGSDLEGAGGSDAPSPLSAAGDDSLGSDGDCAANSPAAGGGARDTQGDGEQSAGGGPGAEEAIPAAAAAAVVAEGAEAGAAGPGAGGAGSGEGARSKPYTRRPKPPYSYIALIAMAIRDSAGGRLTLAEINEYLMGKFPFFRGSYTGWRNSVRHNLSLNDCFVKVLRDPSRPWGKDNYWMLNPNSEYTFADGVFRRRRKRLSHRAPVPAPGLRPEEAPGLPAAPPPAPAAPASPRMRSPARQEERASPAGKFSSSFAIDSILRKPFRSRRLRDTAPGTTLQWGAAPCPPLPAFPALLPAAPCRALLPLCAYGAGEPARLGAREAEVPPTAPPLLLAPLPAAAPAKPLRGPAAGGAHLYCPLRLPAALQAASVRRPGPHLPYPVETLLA
# Test: affinity purification with mass spectrometry; tandem affinity purification (IgG beads, TEV cleavage, streptavidin beads) of C-terminally TAP-tagged FOXQ1 from transfected HEK293T cells; LacZ TAP-tag control; duplicate
row,binding,Substance
1,binds,endogenous DPY30 (from UniProt Q9C005 1-99)
2,binds,endogenous RbBP5 (from UniProt Q15291 1-538)
